Test results from US20230310388A1, “Methods and Compositions for Treating Fungal Infections” (Neoculi Pty Ltd, priority 2020, published 2023).
Some entries share one result that the patent states for a list of compounds. For at least one compound, name, drawing or mass did not settle the structure. Some compounds share one range, which may span the group rather than tell each member.

tested on: Cryptococcus neoformans; assay: CLSI broth microdilution MIC (Example 4); type: cell-based; conditions: two isolates of Cryptococcus neoformans; summary range
Method: Antifungal minimum inhibitory concentration (MIC) testing was undertaken as recommended by the CLSI. Briefly, antifungal susceptibility tests were performed for amphotericin B, robenidine (NCL812) and robenidine (NCL) analogs (NCL004, NCL020, NCL023, NCL024, NCL062, NCL094, NCL097, NCL110, NCL113, NCL114, NCL115, NCL135, NCL139, NCL180, NCL181, NCL195, NCL219, NCL220, NCL228, NCL247, NCL250, NCL259, NCL260, NCL263, NCL265, NCL269, NCL274) by standard broth microdilution method (CLSI) in RPMI 1640. Various concentrations (ranging from high to low) of the selected compounds were prepared in RPMI 1640 medium by double dilution in 96-well microtitre plates. Each well contained an inoculum of approximately 2×10^3 cells/mL. The wells without addition of drugs served as negative (no inoculum) and positive (inoculum only) growth controls. Microtitre plates were incubated at 35° C. for 24-48 hours. […] Antifungal MICs were determined for each isolate in duplicate; if the values obtained were different, the MIC test was repeated a third time.

MICs, 1 to 16 µg/mL:
Cl.N=C(NN=Cc1cccc(F)c1)NN=Cc1cccc(F)c1 [NCL023]
C/C(=N\NC(=N)N/N=C(\C)c1ccc(Cl)cc1)c1ccc(Cl)cc1.Cl [NCL062]
Cl.N=C(NN=Cc1cc(O)c(O)c(O)c1)NN=Cc1cc(O)c(O)c(O)c1 [NCL097]
CN(C)c1ccc(/C=N/NC(=N)N/N=C/c2ccc(N(C)C)cc2)cc1.Cl [NCL113]
COc1ccc(C=NNC(=N)NN=Cc2ccc(OC)c(OC)c2)cc1OC.Cl [NCL115]
Cc1ccc(/C=N/Nc2cc(N/N=C/c3ccc(C)cc3)nc(N)n2)cc1 [NCL195]
C/C(=N\NC(=N)N/N=C(\C)c1ccc(C(C)(C)C)cc1)c1ccc(C(C)(C)C)cc1.Cl [NCL219]
Nc1nc(NN=Cc2ccc(F)cc2)cc(NN=Cc2ccc(F)cc2)n1 [NCL220]
[H]/N=C(\N)NN=C(CC1CCCCC1)c1ccc(Cl)cc1 [NCL259]
[H]/N=C(\N)NN=C(CCCCCC)c1ccc(Cl)cc1 [NCL265]
